Test results: PMC9684461, “RNA-controlled nucleocytoplasmic shuttling of mRNA decay factors regulates mRNA synthesis and a novel mRNA decay pathway” (Nature Communications, 2021)
These are yes or no findings as the source states them, for the method shown. Binding seen in cells or lysates may run through a third protein. Some binding calls cover weakened binding; strength is not graded here. Where a sequence is shown, tags or fusion partners need not be part of it. Blank lines part the entries; values can stand above or below the molecule they belong to.

Sequences of proteins named here, by UniProt entry; tags and fusion partners are left off.
UniProt P22147: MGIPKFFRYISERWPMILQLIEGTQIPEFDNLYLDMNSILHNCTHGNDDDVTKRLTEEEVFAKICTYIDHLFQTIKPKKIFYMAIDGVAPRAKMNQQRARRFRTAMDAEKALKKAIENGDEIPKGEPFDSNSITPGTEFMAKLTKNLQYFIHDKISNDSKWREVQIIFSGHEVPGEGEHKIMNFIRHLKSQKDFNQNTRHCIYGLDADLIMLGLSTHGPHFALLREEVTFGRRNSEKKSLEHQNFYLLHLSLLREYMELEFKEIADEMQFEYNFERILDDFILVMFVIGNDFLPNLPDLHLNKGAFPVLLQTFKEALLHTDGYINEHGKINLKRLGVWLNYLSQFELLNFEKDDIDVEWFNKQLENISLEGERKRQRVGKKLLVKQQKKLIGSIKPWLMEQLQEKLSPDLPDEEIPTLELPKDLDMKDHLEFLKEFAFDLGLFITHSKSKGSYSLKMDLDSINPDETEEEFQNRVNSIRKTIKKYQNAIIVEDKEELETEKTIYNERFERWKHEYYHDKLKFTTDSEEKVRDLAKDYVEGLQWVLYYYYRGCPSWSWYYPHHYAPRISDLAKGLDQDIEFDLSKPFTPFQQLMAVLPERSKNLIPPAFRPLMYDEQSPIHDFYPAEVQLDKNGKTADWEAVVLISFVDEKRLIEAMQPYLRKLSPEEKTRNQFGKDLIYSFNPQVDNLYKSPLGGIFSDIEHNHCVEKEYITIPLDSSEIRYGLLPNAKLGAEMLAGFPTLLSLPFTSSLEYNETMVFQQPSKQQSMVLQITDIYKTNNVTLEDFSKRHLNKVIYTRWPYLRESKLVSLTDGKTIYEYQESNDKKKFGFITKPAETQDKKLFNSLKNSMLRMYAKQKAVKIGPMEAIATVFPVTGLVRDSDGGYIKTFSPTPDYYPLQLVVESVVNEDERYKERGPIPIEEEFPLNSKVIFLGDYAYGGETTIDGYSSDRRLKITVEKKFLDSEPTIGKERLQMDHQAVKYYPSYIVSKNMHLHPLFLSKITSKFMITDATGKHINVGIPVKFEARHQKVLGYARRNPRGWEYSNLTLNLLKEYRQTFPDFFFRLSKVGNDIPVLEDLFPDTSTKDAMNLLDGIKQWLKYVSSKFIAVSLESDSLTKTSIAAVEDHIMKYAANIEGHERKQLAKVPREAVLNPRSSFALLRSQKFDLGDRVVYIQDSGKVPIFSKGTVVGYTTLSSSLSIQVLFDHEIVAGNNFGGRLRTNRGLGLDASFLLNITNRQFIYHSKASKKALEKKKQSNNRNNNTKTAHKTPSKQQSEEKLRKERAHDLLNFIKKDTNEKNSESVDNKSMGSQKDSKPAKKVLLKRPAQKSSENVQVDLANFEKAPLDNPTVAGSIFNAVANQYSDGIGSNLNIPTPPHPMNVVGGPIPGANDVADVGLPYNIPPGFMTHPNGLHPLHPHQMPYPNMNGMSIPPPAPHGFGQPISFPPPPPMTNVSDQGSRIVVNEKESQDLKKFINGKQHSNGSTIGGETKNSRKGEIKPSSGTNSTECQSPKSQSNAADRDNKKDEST

Biological target: T1, TAP-tagged Kap120 (S. cerevisiae, UniProt Q02932 1-1032)
T1 construct: karyopherin Kap120 of S. cerevisiae, TAP-tagged, expressed in yeast; also called Kap120-TAP; source: yeast, in extract, captured on IgG-sepharose
T1 sequence (looked up): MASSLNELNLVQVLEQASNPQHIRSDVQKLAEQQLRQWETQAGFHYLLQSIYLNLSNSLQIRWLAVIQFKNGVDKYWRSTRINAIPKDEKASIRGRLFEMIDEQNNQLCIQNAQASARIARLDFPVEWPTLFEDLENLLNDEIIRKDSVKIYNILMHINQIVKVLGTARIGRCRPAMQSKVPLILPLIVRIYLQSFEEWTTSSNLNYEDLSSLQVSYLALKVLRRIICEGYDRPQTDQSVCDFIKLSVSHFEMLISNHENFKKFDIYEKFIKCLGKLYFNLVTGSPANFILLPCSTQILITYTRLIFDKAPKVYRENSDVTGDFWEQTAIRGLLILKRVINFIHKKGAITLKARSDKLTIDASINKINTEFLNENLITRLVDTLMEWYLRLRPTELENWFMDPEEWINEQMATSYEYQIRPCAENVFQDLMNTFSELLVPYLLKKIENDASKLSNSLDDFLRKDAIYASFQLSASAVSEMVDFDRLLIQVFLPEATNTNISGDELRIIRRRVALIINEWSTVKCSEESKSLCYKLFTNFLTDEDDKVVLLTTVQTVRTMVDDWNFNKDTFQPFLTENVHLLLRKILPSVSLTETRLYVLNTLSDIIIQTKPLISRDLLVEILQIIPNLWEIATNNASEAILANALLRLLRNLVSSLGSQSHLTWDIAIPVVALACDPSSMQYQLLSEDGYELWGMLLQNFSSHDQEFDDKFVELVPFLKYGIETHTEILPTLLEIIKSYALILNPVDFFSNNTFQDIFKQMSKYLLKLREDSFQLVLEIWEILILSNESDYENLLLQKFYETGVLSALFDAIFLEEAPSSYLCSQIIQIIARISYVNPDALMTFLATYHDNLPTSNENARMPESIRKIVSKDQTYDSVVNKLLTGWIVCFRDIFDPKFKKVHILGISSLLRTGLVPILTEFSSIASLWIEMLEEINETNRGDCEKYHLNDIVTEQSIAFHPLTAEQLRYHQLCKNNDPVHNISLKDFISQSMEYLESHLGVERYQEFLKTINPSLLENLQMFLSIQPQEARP
Assay: co-IP; TAP-tagged Kap120 affinity purified with IgG-sepharose from extract of optimally proliferating yeast (WT or Xrn1^ΔNLS1/2 cells); co-IPed proteins by Western blotting; signals normalized to Kap120

binding: binds
Molecule: Xrn1 (wild type) in cells expressing Kap120-TAP (from UniProt P22147 1-1528) (enzyme)

binding: no binding
B1: Ccr4 (protein, UniProt P31384 1-837)
chain: MNDPSLLGYPNVGPQQQQQQQQQQHAGLLGKGTPNALQQQLHMNQLTGIPPPGLMNNSDVHTSSNNNSRQLLDQLANGNANMLNMNMDNNNNNNNNNNNNNNNGGGSGVMMNASTAAVNSIGMVPTVGTPVNINVNASNPLLHPHLDDPSLLNNPIWKLQLHLAAVSAQSLGQPNIYARQNAMKKYLATQQAQQAQQQAQQQAQQQVPGPFGPGPQAAPPALQPTDFQQSHIAEASKSLVDCTKQALMEMADTLTDSKTAKKQQPTGDSTPSGTATNSAVSTPLTPKIELFANGKDEANQALLQHKKLSQYSIDEDDDIENRMVMPKDSKYDDQLWHALDLSNLQIFNISANIFKYDFLTRLYLNGNSLTELPAEIKNLSNLRVLDLSHNRLTSLPAELGSCFQLKYFYFFDNMVTTLPWEFGNLCNLQFLGVEGNPLEKQFLKILTEKSVTGLIFYLRDNRPEIPLPHERRFIEINTDGEPQREYDSLQQSTEHLATDLAKRTFTVLSYNTLCQHYATPKMYRYTPSWALSWDYRRNKLKEQILSYDSDLLCLQEVESKTFEEYWVPLLDKHGYTGIFHAKARAKTMHSKDSKKVDGCCIFFKRDQFKLITKDAMDFSGAWMKHKKFQRTEDYLNRAMNKDNVALFLKLQHIPSGDTIWAVTTHLHWDPKFNDVKTFQVGVLLDHLETLLKEETSHNFRQDIKKFPVLICGDFNSYINSAVYELINTGRVQIHQEGNGRDFGYMSEKNFSHNLALKSSYNCIGELPFTNFTPSFTDVIDYIWFSTHALRVRGLLGEVDPEYVSKFIGFPNDKFPSDHIPLLARFEFMKTNTGSKKV

binding: binds
B2: Pat1 (natural protein, S. cerevisiae (endogenous in yeast), UniProt P25644 1-796, looked up)
chain: MSFFGLENSGNARDGPLDFEESYKGYGEHELEENDYLNDETFGDNVQVGTDFDFGNPHSSGSSGNAIGGNGVGATARSYVAATAEGISGPRTDGTAAAGPLDLKPMESLWSTAPPPAMAPSPQSTMAPAPAPQQMAPLQPILSMQDLERQQRQMQQQFMNFHAMGHPQGLPQGPPQQQFPMQPASGQPGPSQFAPPPPPPGVNVNMNQMPMGPVQVPVQASPSPIGMSNTPSPGPVVGATKMPLQSGRRSKRDLSPEEQRRLQIRHAKVEKILKYSGLMTPRDKDFITRYQLSQIVTEDPYNEDFYFQVYKIIQRGGITSESNKGLIARAYLEHSGHRLGGRYKRTDIALQRMQSQVEKAVTVAKERPSKLKDQQAAAGNSSQDNKQANTVLGKISSTLNSKNPRRQLQIPRQQPSDPDALKDVTDSLTNVDLASSGSSSTGSSAAAVASKQRRRSSYAFNNGNGATNLNKSGGKKFILELIETVYEEILDLEANLRNGQQTDSTAMWEALHIDDSSYDVNPFISMLSFDKGIKIMPRIFNFLDKQQKLKILQKIFNELSHLQIIILSSYKTTPKPTLTQLKKVDLFQMIILKIIVSFLSNNSNFIEIMGLLLQLIRNNNVSFLTTSKIGLNLITILISRAALIKQDSSRSNILSSPEISTWNEIYDKLFTSLESKIQLIFPPREYNDHIMRLQNDKFMDEAYIWQFLASLALSGKLNHQRIIIDEVRDEIFATINEAETLQKKEKELSVLPQRSQELDTELKSIIYNKEKLYQDLNLFLNVMGLVYRDGEISELK
notes: mRNA decay factor Pat1 of S. cerevisiae, detected with anti-Pat1 antibodies; source: endogenous, yeast extract
